Results from PMC11477000, “Enantioselective Binding of Proton Pump Inhibitors to Alpha1-Acid Glycoprotein and Human Serum Albumin—A Chromatographic, Spectroscopic, and In Silico Study” (International Journal of Molecular Sciences, 2024).

Assays:
[1] = tested on: α1-acid glycoprotein (AGP); test: van 't Hoff thermodynamic analysis on AGP column; assay type: binding, human; conditions: for Δ(ΔG°) / Δ(ΔH°) / Δ(ΔS°): pH 7, 95:5 buffer:IPA, 10–30 °C
Procedure: The temperature effect was investigated at pH 7 and a 95:5 buffer:IPA eluents ratio, between 10 and 30 °C on both columns. […] The determination of thermodynamic parameters can provide valuable insights into the process of enantiodiscrimination, including its mechanistic aspects. The applied classical van ’t Hoff methodology postulates the existence of solely enantioselective interaction sites on the stationary phase. Nonetheless, it should be emphasized that a more realistic approach would encompass both enantioselective and non-enantioselective interactions. The isoenantioselective temperatures (Tiso) were calculated by dividing Δ(ΔH°) by Δ(ΔS°). At this temperature, enthalpy and entropy compensations negate each other, resulting in the coelution of the two enantiomers and no separation. The Q values (Q = Δ(ΔH°)/T × Δ(ΔS°)298K) were used for visualizing the relative contribution of enthalpic and entropic terms to the free energy of adsorption. If the Q values were smaller than 1, the enantioseparation was controlled by entropy to a higher extent.
Classical van ’t Hoff analysis was applied to determine the thermodynamic parameters. Van ’t Hoff plots were constructed by plotting the natural logarithm of the retention factor as a function of the inverse of the absolute temperature (thermodynamic temperature) over a temperature range of 10–30 °C:(5) […]
In the equation, R represents the universal gas constant, T represents the absolute temperature in Kelvin, and k represents the retention factor of the enantiomers. ΔH° stands for the standard enthalpy, while ΔS° represents the standard entropy change of transfer of the solute from the mobile phase to the stationary phase. Φ is the phase ratio of the column. If ΔH° remains constant within the selected temperature range, a linear relationship can be observed between lnk and 1/T. The slope of this relationship is −ΔH°/R, and the intercept is ΔS°/R + ln Φ. Since the value of the phase ratio is rarely known, ΔS°* values (ΔS°* = ΔS° + Rln Φ) are often used to account for the uncertainty in Φ. Similarly, the difference in the change of standard enthalpy, Δ(ΔH°), and standard entropy, Δ(ΔS°), for the two enantiomers was calculated as follows:(6) lnα=−ΔΔH°/RT+ΔΔS°/R

[2] = tested on: α1-acid glycoprotein (AGP); test: HPLC on AGP-based chiral stationary phase (ChromTech Chiral-AGP column); assay type: binding, human; conditions: 25 °C
Procedure: HPLC using a protein-based chiral stationary phase is a fully automated method for obtaining rapid information about the binding of compounds to the respective proteins. Enantioseparation occurs in the case of unequal binding constants of the individual enantiomers to the immobilized proteins, thus allowing enantioselective binding to be characterized even when a racemic mixture was injected. As a preliminary step, the enantiospecific binding was investigated on columns containing AGP and HSA in various alcohol:buffer mixtures. A pH 7 phosphate buffer was employed as the aqueous part of the mobile phase, while for the organic part, three different alcohols were evaluated. […]
Chromatographic measurements were carried out on two separate HPLC systems. The AGP binding study was performed on a Waters 2695e chromatographic system paired with a Waters 2996 PDA detector, controlled by Empower 3 FR5 (Waters Corp., Milford, MA, USA), while the HSA binding study was performed on an Agilent 1100 HPLC system, consisting of an inline degasser (G1322A), a quaternary pump (G1311A), an automatic injector (G1329A) paired with sample thermostat (G1330A), a column thermostat (G1316A), and a diode array detector (G1315A) with Agilent Chemstation B04.03-SP2 software (Agilent, Bronnwald, Germany). For the binding studies, two protein-based chiral stationary phases were utilized. The chromatographic binding study for AGP was conducted on a ChromTech Chiral-AGP column (150 mm × 4.0 mm; ChromTech Ltd., Congleton, UK), while the binding study for HSA was performed on a Daicel Chiralpak HSA column (50 mm × 4.0 mm; Daicel Corp., Osaka, Japan). The detection wavelength was 210 nm for all measurements. The stock solutions of PPIs were prepared at a concentration of 1 mg/mL in MeOH. Subsequent dilutions were prepared using water. The injected samples were mixed and diluted from the stock solutions. The final concentration for the eutomer was 0.2 mg/mL, and for the distomer, it was 0.1 mg/mL. A volume of 2 μL was injected. To mitigate the instability of PPIs in aqueous solutions, the samples were kept at a temperature of 4 °C.

[3] = 2.5% IPA, 10 mM pH 7 phosphate buffer
[4] = 5% EtOH, 10 mM pH 7 phosphate buffer
[5] = 5% IPA, 10 mM pH 7 phosphate buffer
[6] = 5% MeOH, 10 mM pH 7 phosphate buffer
[7] = 7.5% EtOH, 10 mM pH 7 phosphate buffer
[8] = 7.5% IPA, 10 mM pH 7 phosphate buffer
[9] = 7.5% MeOH, 10 mM pH 7 phosphate buffer
[10] = 10% EtOH, 10 mM pH 7 phosphate buffer
[11] = 10% IPA, 10 mM pH 7 phosphate buffer
[12] = 10% MeOH, 10 mM pH 7 phosphate buffer
[13] = 12.5% IPA, 10 mM pH 7 phosphate buffer
[14] = 15% EtOH, 10 mM pH 7 phosphate buffer
[15] = 15% IPA, 10 mM pH 7 phosphate buffer
[16] = 15% MeOH, 10 mM pH 7 phosphate buffer
[17] = acetate buffer, 2.5% 2-propanol
[18] = bicarbonate buffer, 2.5% 2-propanol
[19] = citrate buffer, 2.5% 2-propanol
[20] = phosphate buffer, 2.5% 2-propanol
[21] = difference between the two enantiomers

| SMILES | Δ(ΔG°) ([1]; single enantiomer) [kcal/mol] | Δ(ΔH°) ([1]; single enantiomer) [kcal/mol] | EEO enantiomer elution order [2, 3] | Rs resolution [2, 3] | EEO enantiomer elution order [2, 4] | Rs resolution [2, 4] | EEO enantiomer elution order [2, 6] | Rs resolution [2, 6] | EEO enantiomer elution order [2, 7] | Rs resolution [2, 7] | EEO enantiomer elution order [2, 9] | Rs resolution [2, 9] | EEO enantiomer elution order [2, 12] | Rs resolution [2, 12] | EEO enantiomer elution order [2, 16] | Rs resolution [2, 16] | Rs resolution [2, 17] | Rs resolution [2, 18] | Rs resolution [2, 19] | Rs resolution [2, 20] | further results |
| --- | --- | --- | --- | --- | --- | --- | --- | --- | --- | --- | --- | --- | --- | --- | --- | --- | --- | --- | --- | --- | --- |
| Cc1c(OCC(F)(F)F)ccnc1C[S@+]([O-])c1nc2ccccc2[nH]1 [S-lansoprazole] | -1.2 | -7.67 |  |  |  |  |  |  |  |  |  |  |  |  |  |  |  |  |  |  | Δ(ΔS°) ([1]; single enantiomer): −90.9 J/molK |
| Cc1c(OCC(F)(F)F)ccnc1C[S+]([O-])c1nc2ccccc2[nH]1 (centres unmarked) [Lansoprazole, lansoprazole] |  |  | S < R | 1.5 | S < R | 1.3 | S < R | 1.2 | S < R | 1.3 | S < R | 1.1 | S < R | 1.1 | S < R | 0.9 | 0.8 | 1.7 | 2.2 | 1.5 | EEO enantiomer elution order [2, 5]: S < R; Rs resolution [2, 5]: 1.7; EEO enantiomer elution order [2, 8]: S < R; Rs resolution [2, 8]: 1.5; EEO enantiomer elution order [2, 10]: S < R; Rs resolution [2, 10]: 1.2; EEO enantiomer elution order [2, 11]: S < R; Rs resolution [2, 11]: 1.3; EEO enantiomer elution order [2, 13]: S < R; Rs resolution [2, 13]: 1.1; EEO enantiomer elution order [2, 14]: S < R; Rs resolution [2, 14]: 1.0; EEO enantiomer elution order [2, 15]: S < R; Rs resolution [2, 15]: 0.8; Q ([1]; Q = Δ(ΔH°)/T × Δ(ΔS°)298K): 0.9; Δ(ΔG°) [1, 21]: -0.382 kcal/mol; Δ(ΔH°) [1, 21]: 2.32 kcal/mol |
| COCCCOc1ccnc(C[S+]([O-])c2nc3ccccc3[nH]2)c1C (centres unmarked) [Rabeprazole, rabeprazole] |  |  | R < S | 2.5 | R < S | 2.9 | R < S | 3.7 | R < S | 2.0 | R < S | 2.6 | R < S | 3.1 | R < S | 3.4 | 1.5 | 0.81 | 0.49 | 2.5 | EEO enantiomer elution order [2, 5]: R < S; Rs resolution [2, 5]: 1.0; EEO enantiomer elution order [2, 10]: R < S; Rs resolution [2, 10]: 1.4; EEO enantiomer elution order [2, 14]: R < S; Rs resolution [2, 14]: 0.6 |
| COc1ccc2[nH]c([S+]([O-])Cc3ncc(C)c(OC)c3C)nc2c1 (centres unmarked) [Omeprazole, omeprazole] |  |  | R < S | 1.2 | R < S | 1.0 | R < S | 1.8 | R < S | 0.2 | R < S | 1.5 | R < S | 1.1 | R < S | 1.3 | 1.3 | 0.61 | 1.3 | 1.2 |  |
| Cc1c(OCC(F)(F)F)ccnc1C[S@@+]([O-])c1nc2ccccc2[nH]1 [R-lansoprazole, dexlansoprazole] | -1.58 | -5.31 |  |  |  |  |  |  |  |  |  |  |  |  |  |  |  |  |  |  | Δ(ΔS°) ([1]; single enantiomer): −52.7 J/molK |
